In the supplement of paper PMC10849652:
The list shows a part of the results.

Sequences of proteins named here, by UniProt entry; tags and fusion partners are left off. A change or cut given only in a name is not applied to a line headed by its entry.
UniProt P50995, whole entry, looked up: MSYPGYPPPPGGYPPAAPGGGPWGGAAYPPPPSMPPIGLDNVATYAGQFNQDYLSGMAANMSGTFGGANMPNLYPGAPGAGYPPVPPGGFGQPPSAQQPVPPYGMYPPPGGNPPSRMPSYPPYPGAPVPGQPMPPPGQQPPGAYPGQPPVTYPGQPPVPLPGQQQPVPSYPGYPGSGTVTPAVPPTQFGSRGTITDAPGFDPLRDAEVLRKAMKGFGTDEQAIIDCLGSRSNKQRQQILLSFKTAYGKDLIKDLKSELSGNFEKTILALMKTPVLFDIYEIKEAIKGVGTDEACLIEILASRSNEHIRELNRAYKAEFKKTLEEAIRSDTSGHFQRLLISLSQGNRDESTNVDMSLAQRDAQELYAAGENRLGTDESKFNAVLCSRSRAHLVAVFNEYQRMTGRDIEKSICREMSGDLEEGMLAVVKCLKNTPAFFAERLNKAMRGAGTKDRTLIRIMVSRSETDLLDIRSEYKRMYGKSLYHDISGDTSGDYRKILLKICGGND
UniProt Q9UPS8: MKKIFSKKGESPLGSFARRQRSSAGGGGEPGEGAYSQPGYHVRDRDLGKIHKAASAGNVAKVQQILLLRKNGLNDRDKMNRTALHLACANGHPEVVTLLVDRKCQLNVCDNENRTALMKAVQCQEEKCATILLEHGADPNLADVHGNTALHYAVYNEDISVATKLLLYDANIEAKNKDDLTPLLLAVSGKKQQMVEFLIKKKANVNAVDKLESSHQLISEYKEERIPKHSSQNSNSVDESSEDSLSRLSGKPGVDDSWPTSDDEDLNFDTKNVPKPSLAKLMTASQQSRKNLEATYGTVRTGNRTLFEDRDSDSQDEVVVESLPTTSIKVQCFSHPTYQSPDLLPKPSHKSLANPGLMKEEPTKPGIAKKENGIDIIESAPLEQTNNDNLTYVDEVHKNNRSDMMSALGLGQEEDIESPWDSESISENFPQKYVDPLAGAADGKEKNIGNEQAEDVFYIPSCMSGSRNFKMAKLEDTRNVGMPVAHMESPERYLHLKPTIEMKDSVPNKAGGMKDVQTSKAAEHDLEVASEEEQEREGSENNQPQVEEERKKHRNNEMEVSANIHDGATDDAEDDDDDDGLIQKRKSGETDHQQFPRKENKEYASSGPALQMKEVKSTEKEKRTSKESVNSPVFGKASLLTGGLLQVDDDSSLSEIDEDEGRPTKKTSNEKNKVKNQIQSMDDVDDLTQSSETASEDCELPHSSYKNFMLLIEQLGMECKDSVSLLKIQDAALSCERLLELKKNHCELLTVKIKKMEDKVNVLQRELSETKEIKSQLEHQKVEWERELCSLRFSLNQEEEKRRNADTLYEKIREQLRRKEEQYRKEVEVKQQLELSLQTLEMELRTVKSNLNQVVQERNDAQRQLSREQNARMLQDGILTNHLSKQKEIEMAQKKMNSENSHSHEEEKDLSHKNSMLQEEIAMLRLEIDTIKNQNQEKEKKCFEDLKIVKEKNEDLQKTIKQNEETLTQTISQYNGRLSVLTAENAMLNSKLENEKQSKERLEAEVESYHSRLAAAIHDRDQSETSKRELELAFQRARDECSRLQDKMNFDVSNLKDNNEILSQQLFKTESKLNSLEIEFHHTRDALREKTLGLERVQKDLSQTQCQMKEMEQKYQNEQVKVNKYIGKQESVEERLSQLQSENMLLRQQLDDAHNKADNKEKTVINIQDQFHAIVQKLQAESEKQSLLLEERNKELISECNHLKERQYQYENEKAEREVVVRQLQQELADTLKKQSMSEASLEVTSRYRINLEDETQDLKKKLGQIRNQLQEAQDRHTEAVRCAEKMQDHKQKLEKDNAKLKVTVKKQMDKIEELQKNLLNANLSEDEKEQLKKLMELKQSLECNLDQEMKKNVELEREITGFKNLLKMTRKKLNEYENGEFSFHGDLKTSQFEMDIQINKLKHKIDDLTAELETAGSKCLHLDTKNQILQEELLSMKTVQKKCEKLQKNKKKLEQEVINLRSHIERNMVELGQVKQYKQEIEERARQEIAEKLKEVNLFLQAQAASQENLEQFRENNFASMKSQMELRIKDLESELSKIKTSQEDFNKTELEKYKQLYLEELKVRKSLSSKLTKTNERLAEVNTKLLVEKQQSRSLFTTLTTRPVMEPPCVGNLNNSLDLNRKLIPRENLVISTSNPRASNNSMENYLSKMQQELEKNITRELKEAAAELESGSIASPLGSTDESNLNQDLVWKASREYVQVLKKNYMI
UniProt Q9NWB6: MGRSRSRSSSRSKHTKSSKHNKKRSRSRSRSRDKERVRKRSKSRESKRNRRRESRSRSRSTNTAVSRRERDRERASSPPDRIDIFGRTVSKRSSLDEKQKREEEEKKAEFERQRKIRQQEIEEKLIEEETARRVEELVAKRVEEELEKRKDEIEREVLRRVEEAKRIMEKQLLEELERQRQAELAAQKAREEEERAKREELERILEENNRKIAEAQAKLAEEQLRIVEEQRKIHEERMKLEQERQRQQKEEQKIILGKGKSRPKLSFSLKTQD
UniProt P07741: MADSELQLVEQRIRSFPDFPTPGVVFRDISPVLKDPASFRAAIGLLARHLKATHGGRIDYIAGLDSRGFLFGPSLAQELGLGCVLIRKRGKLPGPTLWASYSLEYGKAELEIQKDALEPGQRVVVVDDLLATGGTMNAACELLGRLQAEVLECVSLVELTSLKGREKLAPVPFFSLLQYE
UniProt Q6ZSZ5: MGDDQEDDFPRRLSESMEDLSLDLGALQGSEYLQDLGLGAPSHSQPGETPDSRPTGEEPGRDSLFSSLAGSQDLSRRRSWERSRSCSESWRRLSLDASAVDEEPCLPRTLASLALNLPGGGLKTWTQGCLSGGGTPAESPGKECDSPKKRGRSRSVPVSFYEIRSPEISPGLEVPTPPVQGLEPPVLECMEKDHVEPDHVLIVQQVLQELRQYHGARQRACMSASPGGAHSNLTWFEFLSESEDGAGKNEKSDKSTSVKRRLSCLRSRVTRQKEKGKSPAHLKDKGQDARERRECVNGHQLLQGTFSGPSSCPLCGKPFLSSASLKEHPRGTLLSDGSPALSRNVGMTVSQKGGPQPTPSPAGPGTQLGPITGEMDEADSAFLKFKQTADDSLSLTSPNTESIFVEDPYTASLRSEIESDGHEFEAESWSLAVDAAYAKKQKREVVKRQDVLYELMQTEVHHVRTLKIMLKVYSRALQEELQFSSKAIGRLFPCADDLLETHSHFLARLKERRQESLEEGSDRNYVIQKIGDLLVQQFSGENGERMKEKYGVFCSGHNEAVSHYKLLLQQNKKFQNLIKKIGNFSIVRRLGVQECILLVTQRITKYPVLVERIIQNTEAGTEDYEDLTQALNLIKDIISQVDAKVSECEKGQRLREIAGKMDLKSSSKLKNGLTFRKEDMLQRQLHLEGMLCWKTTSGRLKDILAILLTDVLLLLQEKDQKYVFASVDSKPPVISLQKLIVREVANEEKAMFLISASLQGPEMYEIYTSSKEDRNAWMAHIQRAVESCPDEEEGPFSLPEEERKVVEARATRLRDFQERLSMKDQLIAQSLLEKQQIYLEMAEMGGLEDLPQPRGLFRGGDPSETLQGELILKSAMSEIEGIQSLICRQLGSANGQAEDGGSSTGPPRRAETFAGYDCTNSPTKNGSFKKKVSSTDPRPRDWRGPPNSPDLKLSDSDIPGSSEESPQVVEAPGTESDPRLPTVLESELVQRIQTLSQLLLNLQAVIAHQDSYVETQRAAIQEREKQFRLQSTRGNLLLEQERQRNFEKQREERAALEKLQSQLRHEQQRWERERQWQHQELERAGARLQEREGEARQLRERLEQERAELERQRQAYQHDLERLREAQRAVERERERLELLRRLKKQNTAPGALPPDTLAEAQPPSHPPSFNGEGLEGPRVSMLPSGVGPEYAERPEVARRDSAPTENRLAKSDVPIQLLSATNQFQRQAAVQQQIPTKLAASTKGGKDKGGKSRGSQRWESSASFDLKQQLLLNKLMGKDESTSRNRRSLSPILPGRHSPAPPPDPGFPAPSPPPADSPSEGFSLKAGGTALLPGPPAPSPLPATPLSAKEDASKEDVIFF
UniProt P56377: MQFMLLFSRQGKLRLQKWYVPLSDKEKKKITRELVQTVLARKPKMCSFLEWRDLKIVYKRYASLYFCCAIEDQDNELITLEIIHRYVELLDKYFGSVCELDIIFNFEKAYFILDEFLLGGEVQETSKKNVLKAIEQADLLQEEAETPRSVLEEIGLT
UniProt P84077: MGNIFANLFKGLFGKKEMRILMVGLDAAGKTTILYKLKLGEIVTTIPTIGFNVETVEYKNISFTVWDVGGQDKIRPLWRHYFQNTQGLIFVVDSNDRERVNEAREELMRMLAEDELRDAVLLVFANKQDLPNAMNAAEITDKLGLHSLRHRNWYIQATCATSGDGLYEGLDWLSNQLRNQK
UniProt Q86W74: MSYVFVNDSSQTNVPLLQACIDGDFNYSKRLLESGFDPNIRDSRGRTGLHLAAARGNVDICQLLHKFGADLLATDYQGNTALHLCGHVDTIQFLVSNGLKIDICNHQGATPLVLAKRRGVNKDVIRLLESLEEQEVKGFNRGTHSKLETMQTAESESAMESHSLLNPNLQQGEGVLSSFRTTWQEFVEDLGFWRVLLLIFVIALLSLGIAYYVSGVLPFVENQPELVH
UniProt P39687: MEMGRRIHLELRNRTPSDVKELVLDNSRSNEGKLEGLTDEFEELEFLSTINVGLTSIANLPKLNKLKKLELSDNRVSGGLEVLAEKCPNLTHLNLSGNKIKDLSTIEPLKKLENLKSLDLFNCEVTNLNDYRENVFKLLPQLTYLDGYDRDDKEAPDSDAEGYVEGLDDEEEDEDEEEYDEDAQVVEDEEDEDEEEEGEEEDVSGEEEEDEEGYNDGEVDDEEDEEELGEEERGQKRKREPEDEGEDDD
UniProt Q9Y587: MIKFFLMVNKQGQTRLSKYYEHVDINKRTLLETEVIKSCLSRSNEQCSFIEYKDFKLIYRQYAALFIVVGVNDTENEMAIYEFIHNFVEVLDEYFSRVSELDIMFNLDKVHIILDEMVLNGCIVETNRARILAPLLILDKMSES
UniProt Q9BZZ5: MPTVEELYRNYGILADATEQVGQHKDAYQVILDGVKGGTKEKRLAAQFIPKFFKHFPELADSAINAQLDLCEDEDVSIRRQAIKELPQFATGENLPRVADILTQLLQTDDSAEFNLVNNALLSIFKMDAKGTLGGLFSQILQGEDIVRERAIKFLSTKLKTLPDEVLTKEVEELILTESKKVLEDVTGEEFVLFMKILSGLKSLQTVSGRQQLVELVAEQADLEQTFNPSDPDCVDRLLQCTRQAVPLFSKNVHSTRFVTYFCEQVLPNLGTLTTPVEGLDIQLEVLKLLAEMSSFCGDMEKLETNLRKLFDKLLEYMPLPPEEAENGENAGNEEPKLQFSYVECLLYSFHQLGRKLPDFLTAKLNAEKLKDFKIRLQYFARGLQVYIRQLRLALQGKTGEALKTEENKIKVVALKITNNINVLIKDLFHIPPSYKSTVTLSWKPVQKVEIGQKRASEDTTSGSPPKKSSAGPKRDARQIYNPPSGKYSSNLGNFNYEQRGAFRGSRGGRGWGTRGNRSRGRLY
UniProt P06727: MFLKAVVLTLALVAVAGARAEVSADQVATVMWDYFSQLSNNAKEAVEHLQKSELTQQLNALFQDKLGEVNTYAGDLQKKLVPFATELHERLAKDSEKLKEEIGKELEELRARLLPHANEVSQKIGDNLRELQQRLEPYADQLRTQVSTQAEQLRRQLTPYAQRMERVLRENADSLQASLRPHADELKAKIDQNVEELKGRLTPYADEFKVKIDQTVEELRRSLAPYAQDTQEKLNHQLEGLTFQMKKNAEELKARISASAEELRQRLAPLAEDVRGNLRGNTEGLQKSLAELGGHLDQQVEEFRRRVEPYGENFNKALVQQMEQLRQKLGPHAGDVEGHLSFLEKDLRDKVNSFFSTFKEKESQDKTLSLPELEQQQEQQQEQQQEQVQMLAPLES
UniProt Q92624: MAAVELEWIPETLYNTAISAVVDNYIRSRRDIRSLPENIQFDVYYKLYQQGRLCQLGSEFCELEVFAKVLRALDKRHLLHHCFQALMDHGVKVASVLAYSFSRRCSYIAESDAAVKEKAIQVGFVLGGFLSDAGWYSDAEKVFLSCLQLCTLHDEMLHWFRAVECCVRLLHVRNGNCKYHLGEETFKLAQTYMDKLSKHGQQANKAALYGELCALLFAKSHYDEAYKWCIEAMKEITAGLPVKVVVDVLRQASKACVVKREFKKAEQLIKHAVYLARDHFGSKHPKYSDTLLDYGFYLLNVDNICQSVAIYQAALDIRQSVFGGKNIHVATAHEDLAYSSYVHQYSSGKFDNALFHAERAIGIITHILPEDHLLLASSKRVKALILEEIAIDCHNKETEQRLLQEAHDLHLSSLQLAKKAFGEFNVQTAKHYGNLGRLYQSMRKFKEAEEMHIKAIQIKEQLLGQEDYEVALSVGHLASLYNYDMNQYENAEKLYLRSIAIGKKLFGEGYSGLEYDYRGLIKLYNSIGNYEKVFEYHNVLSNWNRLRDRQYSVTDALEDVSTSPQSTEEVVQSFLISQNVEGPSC

Legend:
Experiment in all cases: log2 fold change, soluble protein after heating vs DMSO (PISA); higher = thermal stabilisation; K562 cells, 10 uM, 30 min; active = over 0.2 and 3.5 SD of the protein, either way, in both replicates (recomputed)
[1] = compound: NC(=O)Nc1cc(-c2cccc(F)c2)sc1C(=O)N[C@H]1CCCNC1
How it was run: (§1)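 Aliquots of K562 cells (2×10^6 cells/mL) treated with 10 μM compound for 30 min were heated for 3 min over 48°C-58°C. After pooling and extraction in PBS with 0.5% NP-40 at 4°C, soluble protein from a 21,000xg, 90 min spin was quantified by TMTpro 16plex LC-MS/MS with channel sums equalised. Thermal stability is expressed against control samples, from duplicates, as a log2 fold change.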

[2] = compound: NC(=O)c1cnc(N[C@@H]2CCCC[C@@H]2N)nc1Nc1cccc(-n2nccn2)c1
How it was run: as §1

[3] = compound: NC1(c2ccc(-c3nc4ccn5c(=O)[nH]nc5c4cc3-c3ccccc3)cc2)CCC1
How it was run: as §1

[4] = compound: NCC(=O)Nc1ccc(-n2nc(C(F)(F)F)cc2-c2ccc3c(ccc4ccccc43)c2)cc1
How it was run: as §1

entinostat = compound: Nc1ccccc1NC(=O)c1ccc(CNC(=O)OCc2cccnc2)cc1 [entinostat]
How it was run: as §1

vorinostat = compound: O=C(CCCCCCC(=O)Nc1ccccc1)NO [vorinostat]
How it was run: as §1

citarinostat = compound: O=C(CCCCCCNC(=O)c1cnc(N(c2ccccc2)c2ccccc2Cl)nc1)NO [citarinostat]
How it was run: as §1

silmitasertib = compound: O=C(O)c1ccc2c(c1)nc(Nc1cccc(Cl)c1)c1ccncc12 [silmitasertib]
How it was run: as §1

[5] = compound: O=C1NC(=O)C(c2cnc3ccccn23)=C1c1cn2c3c(cc(F)cc13)CN(C(=O)N1CCCCC1)CC2
How it was run: as §1

[6] = compound: c1cc(OCCN2CCCCC2)cc(-c2n[nH]c3ccc(-c4nnc[nH]4)cc23)c1
How it was run: as §1

Measured: log2 fold change

ANXA11 (UniProt P50995)
inactive: [1] -0.01 | [2] -0.028 | [3] -0.096 | [4] -0.052 | entinostat 0.05 | vorinostat -0.027 | citarinostat 0.056 | silmitasertib -0.001 | [5] -0.055 | [6] 0.019

ANKRD26 (UniProt Q9UPS8)
inactive: [1] 0.242 | [2] 0.08 | [3] 0.028 | [4] 0.007 | entinostat -0.001 | vorinostat 0.053 | silmitasertib -0.011

ARGLU1 (UniProt Q9NWB6)
inactive: [1] -0.089 | [2] 0.01 | [3] 0.168 | [4] -0.08 | entinostat -0.071 | vorinostat -0.061 | citarinostat 0.026 | silmitasertib -0.245 | [5] 0.319 | [6] -0.208

APRT (UniProt P07741)
inactive: [1] -0.004 | [2] -0.038 | [3] 0.024 | [4] -0.015 | entinostat 0.001 | vorinostat -0.025 | citarinostat 0.045 | silmitasertib -0.019 | [5] -0.057 | [6] -0.017

AP1B1 (UniProt Q10567)
inactive: [1] -0.008 | [2] 0.036 | [3] -0.048 | [4] 0.019 | entinostat 0.013 | vorinostat 0.016 | citarinostat 0.016 | silmitasertib 0.031 | [5] 0.015 | [6] -0.028

ARHGEF18 (UniProt Q6ZSZ5)
inactive: [1] 0.005 | [2] -0.074 | [3] -0.124 | [4] -0.061 | entinostat -0.031 | vorinostat 0.057 | silmitasertib 0.101 | [5] 0

ANK2 (UniProt Q01484)
inactive: [1] -0.146 | [2] -0.196 | [3] -0.183 | [4] -0.16 | entinostat 0.001 | vorinostat 0.134 | citarinostat -0.104 | silmitasertib -0.004 | [6] -0.019

ARHGEF12 (UniProt Q9NZN5)
inactive: [1] -0.132 | [2] -0.117 | [3] 0.085 | [4] -0.03 | entinostat 0.019 | silmitasertib 0.034 | [5] 0.035

AP1S2 (UniProt P56377)
inactive: [1] 0.027 | [2] -0.035 | [3] -0.074 | entinostat 0.039 | vorinostat 0.095 | citarinostat 0.113 | silmitasertib 0.12 | [5] 0.111 | [6] 0.025

AP2M1 (UniProt C9JTK4)
inactive: [1] -0.07 | [2] -0.149 | [3] -0.111 | [4] -0.261 | entinostat 0.043 | citarinostat -0.132 | silmitasertib 0.116 | [5] -0.267 | [6] 0.024

ARF1 (UniProt P84077)
inactive: [1] 0.047 | [2] -0.017 | [3] -0.004 | [4] 0.048 | entinostat -0.433 | citarinostat -0.085 | silmitasertib 0.131 | [5] -0.118 | [6] -0.145

ANKRD46 (UniProt Q86W74)
inactive: [1] -0.021 | [2] 0.038 | [3] -0.188 | [4] 0.008 | entinostat -0.031 | vorinostat 0.05 | citarinostat 0.157 | silmitasertib 0.151 | [5] -0.021 | [6] 0.068

ANP32A (UniProt P39687)
inactive: [1] -0.029 | [2] -0.013 | [3] 0.032 | [4] 0.052 | entinostat 0.02 | vorinostat 0.043 | citarinostat 0.097 | silmitasertib -0.005 | [5] 0.088 | [6] -0.018

Reprinted at random: two records from the list
ANKRD46 (UniProt Q86W74)
inactive: [1] -0.021 | [2] 0.038 | [3] -0.188 | [4] 0.008 | entinostat -0.031 | vorinostat 0.05 | citarinostat 0.157 | silmitasertib 0.151 | [5] -0.021 | [6] 0.068

AP2M1 (UniProt C9JTK4)
inactive: [1] -0.07 | [2] -0.149 | [3] -0.111 | [4] -0.261 | entinostat 0.043 | citarinostat -0.132 | silmitasertib 0.116 | [5] -0.267 | [6] 0.024

(cont.)

AP4S1 (UniProt Q9Y587)
inactive: [1] -0.014 | [2] 0.039 | [3] -0.11 | [4] 0.019 | entinostat 0.062 | citarinostat 0.054 | silmitasertib -0.005 | [5] -0.092 | [6] 0.015

API5 isoform 1 (UniProt Q9BZZ5)
inactive: [2] -0.009 | [4] -0.046 | [5] -0.018

APOA4 (UniProt P06727)
inactive: [2] -0.161 | [3] 0.161 | [4] 0.065 | silmitasertib 0.127 | [5] 0.134

APBA2 (UniProt Q99767)
inactive: [5] -0.063

APPBP2 (UniProt Q92624)
inactive: vorinostat -0.183
